# Library screening results

Chains of the proteins cited; added tags and fusions are not shown.
UniProt E9BF75, entry or part of it: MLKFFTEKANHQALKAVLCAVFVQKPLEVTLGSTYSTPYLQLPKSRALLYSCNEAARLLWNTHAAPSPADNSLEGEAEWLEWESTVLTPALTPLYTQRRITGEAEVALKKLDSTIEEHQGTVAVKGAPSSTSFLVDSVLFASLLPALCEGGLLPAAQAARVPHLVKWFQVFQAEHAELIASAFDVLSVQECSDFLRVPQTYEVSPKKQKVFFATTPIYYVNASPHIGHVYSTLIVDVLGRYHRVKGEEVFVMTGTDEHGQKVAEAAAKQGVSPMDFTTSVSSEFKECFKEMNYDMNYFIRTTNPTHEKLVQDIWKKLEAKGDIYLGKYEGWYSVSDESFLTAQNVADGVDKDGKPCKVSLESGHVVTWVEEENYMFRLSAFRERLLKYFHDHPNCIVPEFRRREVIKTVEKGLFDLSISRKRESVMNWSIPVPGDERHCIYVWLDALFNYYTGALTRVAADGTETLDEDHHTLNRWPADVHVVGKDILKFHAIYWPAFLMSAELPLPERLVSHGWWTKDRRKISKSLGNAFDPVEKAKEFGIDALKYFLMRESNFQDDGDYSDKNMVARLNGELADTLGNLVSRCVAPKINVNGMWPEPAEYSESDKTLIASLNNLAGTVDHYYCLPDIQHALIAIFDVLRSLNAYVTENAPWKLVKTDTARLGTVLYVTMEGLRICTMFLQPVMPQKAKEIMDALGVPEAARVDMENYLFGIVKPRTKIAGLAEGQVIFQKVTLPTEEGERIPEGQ

Source: ChEMBL document CHEMBL3988442, “University of Dundee, Small-Polar-MMV Screening Library” (2021).

All values are in %.
The controls that fix the scale are not given in the record; negative values are as filed.
This is an unselected part of the compounds tested.
A dash means the value is not listed here; it may have been measured.

LdMetRS: 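Methionyl-tRNA synthetase (putative), Leishmania donovani (UniProt E9BF75). Primary screen of methionyl-tRNA synthetase; the read-out is not stated. The test concentration is not given. Values are per cent inhibition. About 68,000 compounds were tested under these conditions; 0.035% (about 24) showed 50% or more at least once.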
Mtb heat-shock: 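Assay on Mycobacterium tuberculosis, filed only as a heat shock assay from Cornell; the read-out is not stated. The concentration is filed as 10 mM, unlikely as a test dose, so the dose is not known. The record gives no direction; compounds that gave an IC50 in retests scored well above the rest, so higher reads as stronger inhibition. Size under these conditions: about 69,000 compounds, about 930 of them at 50% or above in at least one test.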

| # | SMILES | LdMetRS | Mtb heat-shock |
|---|---|---|---|
| 1 | `O=C(Cc1ccc(O)c(F)c1)N1CCN(CC2CC2)[C@@H]2CS(=O)(=O)C[C@@H]21` | 16.85 | - |
| 2 | `O=C(CN1CC(c2nc(C3CC3)no2)C1)NCc1ccc(F)cc1.O=C(O)C(=O)O` | - | -19.44 |
| 3 | `COCCC(Cc1cccc(Br)c1)C(=O)N(C)C` (centres unmarked) | 13.94 | -24.11 |
| 4 | `CC(C)OCc1ncn2c1CN(CCO)CCC2` | 18.3 | - |
| 5 | `Cc1cc(C)n2c(CCCNS(=O)(=O)c3ccc(F)cc3)nnc2n1` | 8.943 | 7.308 |
| 6 | `O=C(c1cccc(S(=O)(=O)NCCc2ccccn2)c1)N1CCOCC1` | 15.38 | 15.15 |
| 7 | `CC(=O)N1CCCC(c2ccnc(Nc3cnccn3)c2)C1` (centres unmarked) | 15.94 | 14.46 |
| 8 | `O=C(O)C(F)(F)F.[H][C@@]12CCCO[C@]1([H])[C@H](NS(C)(=O)=O)CN(Cc1cc(C)on1)C2` | - | -26.06 |
| 9 | `Cc1cnc(NC2CCN(CC(=O)Nc3ccccc3)CC2)nc1C` | 1.872 | -16.4 |
| 10 | `CCCN1CCC2(C1)c1ccccc1S(=O)(=O)N2C.O=C(O)C(F)(F)F` (centres unmarked) | - | 5.707 |
| 11 | `CC(C)c1noc(CCCC(=O)N2CCN(Cc3ccsc3)CC2)n1` | 16.76 | -4.275 |
| 12 | `[H][C@@]12COC[C@@H](C(=O)NC)[C@]1([H])CN(C(=O)c1ccc(C)c(F)c1)C2` | - | -8.96 |
| 13 | `CCOc1ccc(NC(C)=O)cc1S(=O)(=O)Nc1nccs1` | 13.04 | -7.265 |
| 14 | `Cc1noc(C2CCC3(CCN(C(=O)c4ccncn4)CC3)O2)n1` (centres unmarked) | 19.29 | -33.46 |
| 15 | `O=C(O)C(F)(F)F.[H][C@@]12OCCN(CCOCc3ccccc3)[C@@]1([H])CC[C@@H]2OC` | - | 1.278 |
| 16 | `O=c1cccnn1CC1CN(c2ncc(F)cn2)Cc2nccn2C1` (centres unmarked) | 12.88 | -20.98 |
| 17 | `O=C(CCN1CCCN(c2nccs2)CC1)Nc1ccccc1` | 3.497 | -8.927 |
| 18 | `CCc1cccc2cc(CNCCOC)c(=O)[nH]c12` | 7.477 | -15.62 |
| 19 | `COc1nccnc1N1CCC(C(=O)O)(n2ccc(C(C)(C)C)n2)CC1` | 12.75 | 11.85 |
| 20 | `Cc1ccc(OC2(C(=O)O)CCN(C(=O)c3cccs3)CC2)cn1` | -1.099 | -4.943 |
| 21 | `CCN(CC)C(=O)c1ccc(Cl)c(NC(=O)c2cc[nH]n2)c1` | -0.2611 | -17.91 |
| 22 | `CC(C)N1CCN2C(=O)N(C3CCCCC3)C[C@H]2C1` | 9.023 | - |
| 23 | `CC(=O)N(C)C1CCN(C(=O)NCCc2cc(F)ccc2F)CC1` | 6.46 | 8.954 |
| 24 | `Cc1c(C(=O)NC2(C#N)CCCC2)nnn1-c1ccccc1Cl` | 12.03 | -39.45 |
| 25 | `Cc1nc(C2CCCN(C(=O)C3=NN(C(C)C)C(=O)CC3)C2)no1` (centres unmarked) | 15.47 | -17.51 |
| 26 | `O=C(COC1CCCC1)N1CCCC1c1noc(C2CC2)n1` (centres unmarked) | 11.73 | 17.22 |
| 27 | `Cc1cc(C)c2nc(C)c(C(=O)N3CCC(CCN(C)C)CC3)cc2c1` | 10.59 | -13.54 |
| 28 | `Cc1ccc2c(c1)CN(C(=O)C1CCCCC1)C(CN(C)C)CO2` (centres unmarked) | 5.822 | - |
| 29 | `COCC(=O)N1CCCN(Cc2cc(O)c3ccccc3n2)CC1` | 13.38 | 4.063 |
| 30 | `CN1CC(=O)N(c2cccc(F)c2)CC12CCN(Cc1ccccn1)C2` (centres unmarked) | 14.18 | 0.9522 |
| 31 | `O=C([C@H]1C[C@H]2OCC[C@H]2N(Cc2ccccc2F)C1)N1CCCCO1` | 18.91 | - |
| 32 | `COCCN1CCN(C)C2(CCN(C(=O)c3ccnnc3)CC2)C1=O.O=C(O)C(F)(F)F` | - | -16.71 |
| 33 | `Cc1ccc(OCC(=O)NCc2ccccc2F)nc1` | 20.5 | 9.245 |
| 34 | `c1ncn(CC2CN(Cc3nc(-c4ccsc4)no3)CCO2)n1` (centres unmarked) | 8.197 | -2.359 |
| 35 | `Cc1ccccc1-c1cc(C(=O)N2CCCC(n3ccnc3C)C2)[nH]n1` (centres unmarked) | 4.789 | -16.72 |
| 36 | `COc1ccc(CN2CCC(C(N)=O)C2)c(Br)c1OC` (centres unmarked) | -2.975 | 14.86 |
| 37 | `O=C(O)C(F)(F)F.O=S(=O)(c1cccs1)N1CC[C@@H](O)[C@@H]1Cc1ccncc1` | - | -27.1 |
| 38 | `[H][C@@]12COC[C@]1([H])[C@@H](OCC1CCOCC1)CN2C(=O)c1cccn1C` | - | 12.86 |
| 39 | `COC(=O)[C@H]1CCCCN1C(=O)c1cccc(-n2cccn2)c1` | 15.78 | 3.055 |
| 40 | `Cc1occc1C(=O)N1C[C@@H](C(=O)N2CCCCO2)C[C@H]2OCC[C@H]21` | 11.85 | - |
| 41 | `O=C(O)C(F)(F)F.O=C(O)C(F)(F)F.[H][C@@]12COC[C@]1([H])[C@@H](OCCN(C)C)CN2Cc1ccc(C)o1` | - | 10.07 |
| 42 | `CC(C)c1nccc([C@@H]2C[C@@H]3CCN(Cc4ccoc4)C[C@H]3O2)n1` | 6.536 | - |
| 43 | `OC(COCc1ccco1)CN1CCC(Cn2cccn2)CC1` (centres unmarked) | 3.662 | -14.75 |
| 44 | `CCN1CCCc2cc(CN3CCc4c(nc(C)[nH]c4=O)C3)ccc21` | 16.67 | -4.977 |
| 45 | `COC(=O)c1ccc(C(=O)NCc2ccc(Br)cc2)cn1` | 12.04 | -1.958 |
| 46 | `CCCOCC(=O)N1CCCN(Cc2csc(CC)n2)CC1` | 4.7 | 22.03 |
| 47 | `CN1CCCN(CCCNC2CCc3cc4c(cc32)OCCO4)CC1` (centres unmarked) | 11 | -32.4 |
| 48 | `CCOCC1CN(C(=O)c2ccnnc2)Cc2cnn(CC)c21` (centres unmarked) | 9.333 | - |
| 49 | `COc1ccc(CN2C[C@@H]3CN(Cc4cccnc4)CCO[C@@H]3C2)cc1` | 8.901 | - |
| 50 | `Cn1cc(C2CCCN2C(=O)c2cnc(-c3ccccn3)s2)cn1` (centres unmarked) | 16.91 | 1.249 |
| 51 | `COC(=O)c1cc2c(=O)[nH]c(=O)n(CCc3ccccc3)c2nc1C` | 2.135 | 4.725 |
| 52 | `Cc1cccc(Cc2nc3c([nH]2)CCCNC3=O)c1` | 10.87 | 26.1 |
| 53 | `CCc1ncc(C(=O)NCCNc2ccncc2)s1` | 17.13 | 2.941 |
| 54 | `Cc1cc(N2CCC(N(C)Cc3cc(=O)c(O)co3)CC2)nc(C)n1` | 9.756 | -11.77 |
| 55 | `CCOc1ncccc1NC(=O)N1CCC(n2cncn2)CC1` | 15.22 | -8.476 |
| 56 | `O=C(O)C(F)(F)F.[H][C@@]12CNC[C@]1(C(=O)O)CN(C(=O)c1ccccc1-c1ccccc1)C2` | - | -1.478 |
| 57 | `[H][C@@]12CN(C(C)=O)C[C@]1(C(=O)NC)CCC21CCN(S(=O)(=O)CC)CC1` | - | -5.854 |
| 58 | `Cc1c(C)n(CC(O)CN2CCC(O)CC2)c2c(Cl)cccc12` (centres unmarked) | 10.56 | -0.7313 |
| 59 | `Cc1ccc([C@]2(O)CC[C@H]3CN(Cc4cccnc4)C[C@H]32)nc1` | 3.955 | - |
| 60 | `COC(=O)N1CCC(Nc2ccc(Cl)c(C#N)n2)CC1` | -28.2 | -2.315 |
| 61 | `N#Cc1cccnc1Oc1cc(F)c(CN2CCCC2)c(Cl)c1` | 10.9 | 7.418 |
| 62 | `Cc1noc(CN2CC(=O)N(C)c3ccccc3C2=O)n1` | 13.19 | -0.515 |
| 63 | `CN(C)CC1CSCCCN1C(=O)c1ccc(=O)[nH]c1` (centres unmarked) | 8.824 | 1.687 |
| 64 | `CCc1nnc(CN(C)c2nc(C(C)C)nc3c2cnn3C)o1` | 8.85 | 106.1 |
| 65 | `CC(C)CC(CCO)CNC(=O)N1CCCC1(C)C` (centres unmarked) | 8.179 | -17.13 |
| 66 | `Cc1ncc(-c2nc3cc(S(=O)(=O)N4CCCC4)ccc3n2C)cn1` | -10.34 | 4.999 |
| 67 | `Cc1csc(CNC(=O)NCC(O)c2ccc(F)cc2)n1` (centres unmarked) | -6.522 | -12.24 |
| 68 | `CS(=O)(=O)Nc1ccn(Cc2cccc(F)c2)n1` | -4.271 | -10.08 |
| 69 | `COc1cccc2cc(CNC(=O)N3CCC(C(N)=O)CC3)oc12` | 10.99 | -7.475 |
| 70 | `Cc1cc(C)n(CC2CCCN2C(=O)c2ccc3c(c2)OCO3)n1` (centres unmarked) | 10.42 | -9.363 |
| 71 | `O=C(NCc1ccccc1CN1CCC(O)CC1)Nc1cccnc1` | 6.159 | 7.204 |
| 72 | `O=C(NCC1CC[C@@]2(CNCCOC2)O1)c1cccnc1` (some centres unmarked) | 11.42 | -12.52 |
| 73 | `CC(C)[C@H](N)CC(=O)Nc1nc(-c2cnc(N3CCOCC3)nc2)cs1` | 19.66 | - |
| 74 | `O=C(O)C(F)(F)F.[H][C@@]12CCN(C(=O)COCC)C[C@]1(COc1ncccc1F)CCO2` | - | -28.78 |
| 75 | `CC1C(=O)Nc2cccnc2N1S(=O)(=O)c1cc(F)cc(F)c1` (centres unmarked) | 8.271 | -37.55 |
| 76 | `CCCc1cc(C(=O)N(C)Cc2cnc3ccccc3n2)n(C)n1` | 15.75 | -18.85 |
| 77 | `O=S(=O)(Cc1ccccc1)N1CCCn2cnc(CN3CCCC3)c2C1` | 16.32 | - |
| 78 | `O=C(c1ccc(F)c(F)c1)N1CCC[C@]2(C[C@@H](OCC3CC3)CO2)C1` | 9.453 | 3.317 |
| 79 | `Cl.Cn1nc(C2CCN(C(=O)Cc3ccsc3)CC2)c2cccnc21` | - | -3.831 |
| 80 | `Cc1cc(C)n(CC2CCCCN2CCCS(N)(=O)=O)n1` (centres unmarked) | 5.594 | -14.66 |
| 81 | `CSc1nccc(N2CCC(NCc3ccc4nsnc4c3)CC2)n1` | 9.244 | -1.312 |

6 of the entries, repeated:

* O=C([C@H]1C[C@H]2OCC[C@H]2N(Cc2ccccc2F)C1)N1CCCCO1 : LdMetRS: 18.91%
* Cc1csc(CNC(=O)NCC(O)c2ccc(F)cc2)n1 (centres unmarked) : LdMetRS: -6.522%; Mtb heat-shock: -12.24%
* COC(=O)c1ccc(C(=O)NCc2ccc(Br)cc2)cn1 : LdMetRS: 12.04%; Mtb heat-shock: -1.958%
* O=C(CN1CC(c2nc(C3CC3)no2)C1)NCc1ccc(F)cc1.O=C(O)C(=O)O : Mtb heat-shock: -19.44%
* O=C(c1ccc(F)c(F)c1)N1CCC[C@]2(C[C@@H](OCC3CC3)CO2)C1 : LdMetRS: 9.453%; Mtb heat-shock: 3.317%
* O=C(c1cccc(S(=O)(=O)NCCc2ccccn2)c1)N1CCOCC1 : LdMetRS: 15.38%; Mtb heat-shock: 15.15%